The campaign covered roughly 400,000 compounds. About 5,500 (1.4%) were called active. Inconclusive results, whose numbers are uncertain, are shown with a selection of clear calls. The call rests on the fitted dose curve; in most records, active means well fitted cell-killing curve with a large enough effect; inconclusive means small, poorly fitted or top-dose-only effect, or effect the other way; inactive means flat fitted curve, though single readings scatter. Potencies of inconclusive entries are doubtful fits and often do not repeat.
Assay: qHTS assay for MDR1-selective chemotherapeutics: Primary screen using the parental adenocarcinoma cell KB-3-1; further: nearly all actives have a fitted effect of over 60% in size
Details: KB-3-1 viability, CellTiter-Glo ATP luminescence, 72 h; activity change, negative = cytotoxic: at 46.1 µM (top of the series)
Summary of the method: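 Parental KB-3-1 viability, qHTS format: 72 h compound exposure, 37 °C; CellTiter-Glo; media-only wells and DMSO plates as controls; concentration-effect fits on corrected data.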
On the % scale 0 is the no-effect control and ±100 the full control effect; potency means the concentration at half of the fitted maximal effect.

| SMILES | Potency | activity change, negative = cytotoxic |
| --- | --- | --- |
| CCOc1cc(N2CCOCC2)c(OCC)cc1NC(=O)Cc1ccccc1OC | inconclusive: 18.4 µM [cytotoxic, single point] |  |
| CN(C)c1ccnc(Oc2ccc(C(C)(C)C)cc2)c1C#N | inconclusive: 29.1 µM [rising, single point] |  |
| COc1ccc(-c2cc(C(F)(F)F)n3nc(C(=O)NCC45CC6CC(CC(C6)C4)C5)cc3n2)cc1OC | inconclusive: 18.4 µM [cytotoxic, single point] |  |
| Cc1nnc2n(-c3ccccc3)c(=O)c3ccccc3n12 | inconclusive: 29.1 µM [rising, single point] |  |
| Cc1ccc2ccc3cc(C(=O)N4CCN(c5ccccc5)CC4)nc3c2[nH]1 | inconclusive: 18.4 µM [cytotoxic, single point] |  |
| COc1ccc(CCN(C)CC(O)COc2ccc(C(C)=O)cc2OC)cc1OC (stereo not drawn) | inactive |  |
| Cc1ccc(N(CC(=O)NCC2CCCO2)C(=O)CCC(=O)Nc2ccccn2)cc1C (stereo not drawn) | inactive |  |
| Cc1ccc(NC(=O)CCn2c(=O)[nH]c3ccsc3c2=O)cc1F | inconclusive: 1.64 µM [cytotoxic, full curve] |  |
| CCCOc1ccccc1NC(=O)/C=C/C(N)=O | inactive |  |
| C[N+]1(CC(=O)c2ccccc2)CCc2ccccc2C1 (stereo not drawn) | inactive |  |
| Cn1c(=O)[nH]c(=O)c2c1nc(SCC(N)=O)n2Cc1cccc(Br)c1 | inconclusive: 8.2 µM [cytotoxic, partial curve] |  |
| COc1ccc(C)cc1NC(=O)Cn1cc(S(=O)(=O)Cc2ccccc2Cl)c2ccccc21 | inconclusive: 29.1 µM [cytotoxic, single point] |  |
| CC(=O)Nc1ccc(C(=O)N2CCCCC2c2cc(C(=O)Nc3cccc(C#N)c3)no2)cc1 (stereo not drawn) | inconclusive: 1.64 µM [rising, full curve, poor fit] |  |
| O=C(CN(Cc1ccccc1F)S(=O)(=O)c1ccc(Cl)cc1)NCC1CCCO1 (stereo not drawn) | inactive |  |
| Cc1cc(C(C)(C)C)cc(C)c1Cn1c2[n+](c3ccc(C(F)(F)F)cc31)CCCCC2 | inconclusive: 18.4 µM [cytotoxic, single point] |  |
| Cc1ccc(S(=O)(=O)N2CCN(S(=O)(=O)N3CCCCC3)CC2)c(C)c1 | inactive |  |
| O=C1NC[C@@H](CCCCN2C[C@H](Cc3ccc(O)cc3)N(CCc3ccccc3)C(=O)C2=O)N(CCc2ccccc2)C1=O | inactive |  |
| CCOC(=O)c1cccc(NC(=O)Nc2ccc(OCC)cc2)c1 | inactive |  |
| C#CCNC(=O)C[C@@H]1C[C@@]2(C(=O)OCC)CCCC=C2N(CCCCCCCC)C1=O | inconclusive: 16.4 µM [cytotoxic, single point] |  |
| CCCC(=O)OCCNc1cc(Sc2nc3ccccc3[nH]2)c2nonc2c1[N+](=O)[O-] | inconclusive: 32.6 µM [cytotoxic, single point] |  |
| O=S1(=O)CC=C(CSc2nc3ccccc3[nH]2)C1 |  | inconclusive: -0.971% |
| Cc1ccc(C2C(C#N)=C(N)Oc3c2oc(CO)cc3=O)o1 (stereo not drawn) | inconclusive: 29.1 µM [rising, partial curve, poor fit] |  |
| CCN1CCCC1CNC(=O)c1cc(S(N)(=O)=O)ccc1OC (stereo not drawn) | inactive |  |

In another format: results already given
SMILES	Potency	activity change, negative = cytotoxic
CCCC(=O)OCCNc1cc(Sc2nc3ccccc3[nH]2)c2nonc2c1[N+](=O)[O-]	inconclusive: 32.6 µM [cytotoxic, single point]	
O=S1(=O)CC=C(CSc2nc3ccccc3[nH]2)C1		inconclusive: -0.971%
Cc1ccc(C2C(C#N)=C(N)Oc3c2oc(CO)cc3=O)o1 (stereo not drawn)	inconclusive: 29.1 µM [rising, partial curve, poor fit]	

More entries

| SMILES | Potency | activity change, negative = cytotoxic |
| --- | --- | --- |
| Cc1ccc(-c2c[n+]3c(n2-c2ccccc2)SCC3)cc1 | active: 3.26 µM |  |
| COc1cc(C(=O)Nc2ccc3c(c2)ncn3C)cc(OC)c1OC | inconclusive: 5.17 µM [cytotoxic, full curve, poor fit] |  |
| Cc1ccc(Cc2nc3ccccc3nc2SCC(=O)N2CCCCC2C)cc1 (stereo not drawn) | inconclusive: 18.4 µM [cytotoxic, single point] |  |
| Cn1cnc2c(N/N=C/c3cccs3)ncnc21 | inconclusive: 10.3 µM [cytotoxic, partial curve] |  |
| N#Cc1cccc(C(=O)Nc2cc(S(=O)(=O)N3CCOCC3)ccc2N2CCCC2)c1 | inactive |  |
| CS(=O)(=O)N(Cc1ccc(Cl)cc1)c1ccc(C(=O)Nc2cccnc2)cc1 | inconclusive: 20.6 µM [cytotoxic, partial curve, poor fit] |  |
| O=C(c1ccc2c3c(cccc13)C(=O)N(O)C2=O)N1CCCCC1 | inconclusive: 29.1 µM [cytotoxic, single point] |  |
| COc1cc(C2c3c(n[nH]c3C)C(=O)N2c2ccc(Br)cc2)ccc1O (stereo not drawn) | inconclusive: 29.1 µM [rising, single point] |  |
| CN(C)S(=O)(=O)N1CCC(Oc2ccc(C(=O)NC3Cc4ccccc4C3)cc2)CC1 | inconclusive: 3.26 µM [cytotoxic, partial curve, poor fit] |  |
| CCCOc1ccc(S(=O)(=O)NCCCN2CCOCC2)c2ccccc12 | inactive |  |
| C=C(C)COc1ccc(-c2nc(N)ncc2-c2ccc(Br)cc2)c(O)c1 | active: 20.6 µM |  |
| Cc1nn(C2CC(O)C(O)C(CO)O2)c(=O)[nH]c1=O (stereo not drawn) | inactive |  |
| CCCCCC1CCC(c2n[nH]c(=S)n2C)CC1 (stereo not drawn) | inconclusive: 11.6 µM [cytotoxic, partial curve, poor fit] |  |
| COCCNc1nc2c(c(=O)n(C)c(=O)n2C)n1Cc1cccc(C)c1 | inconclusive: 20.6 µM [cytotoxic, single point] |  |
| Cc1ccc(NCCCCO)cc1C | inactive |  |
| COc1ccc(CCN2CCC(CNC(=O)c3cnn(-c4ccccc4)c3C3CCN(C(=O)OC(C)(C)C)CC3)CC2)cc1 | active: 16.4 µM |  |
| CN(C)c1ccc(CNC(=O)CCCn2ccc3cc(S(=O)(=O)N4CCCC4)ccc32)cc1 | inconclusive: 23.1 µM [cytotoxic, partial curve, poor fit] |  |
| CSc1n[nH]c2nc3c(c(=O)n12)C1(CCCCC1)Cc1ccccc1-3 | inconclusive: 0.184 µM [cytotoxic, partial curve, poor fit] |  |
| CC(NC(=S)NC1CCCCC1)c1ccccc1 (stereo not drawn) | inconclusive: 20.6 µM [cytotoxic, partial curve, poor fit] |  |
| O=C1CC(C2CCCO2)C(=O)N1c1ccc(Cl)c(Cl)c1 (stereo not drawn) | inactive |  |
| O=C1COc2ccc(-c3csc(-c4ccc(Cl)cc4)n3)cc2N1 | inconclusive: 29.1 µM [cytotoxic, single point] |  |
| CN=C1NN=C(c2cc(C)n(-c3c(C)n(C)n(-c4ccccc4)c3=O)c2C)CS1 | inconclusive: 23.1 µM [rising, partial curve, poor fit] |  |
| COc1ccc(C2=Nn3c(nnc3-c3cccnc3)SC2)cc1 | inconclusive: 29.1 µM [cytotoxic, single point] |  |

| SMILES | Potency | activity change, negative = cytotoxic |
| --- | --- | --- |
| COc1cc(OC)c2c(-c3cccc(-c4ccc(F)c(Cl)c4)c3)cc(=O)oc2c1 | inconclusive: 13 µM [cytotoxic, partial curve, poor fit] |  |
| C=CCC[C@@H](Cc1ccc(F)cc1)C(=O)OC[C@H](Cc1c[nH]c2ccccc12)NC(=O)[C@@H](CC=C)CC(=O)N[C@@H](CO)Cc1ccccc1 | inactive |  |
| COc1cc(C(=O)Nc2cc(C)ccn2)ccc1OCC(=O)N1CCOCC1 | inconclusive: 23.1 µM [rising, partial curve, poor fit] |  |
| O=C(c1ccco1)N1CCN(C(c2ccccc2Cl)c2nnnn2Cc2cccs2)CC1 (stereo not drawn) | inconclusive: 23.1 µM [cytotoxic, single point] |  |
| COc1ccc(C(=O)NCc2ccc3c(c2)OCO3)cc1S(=O)(=O)N(C)Cc1ccccc1 | inactive |  |
| Clc1ccc(-c2csc(Nc3ccccc3)[n+]2Cc2ccco2)c(Cl)c1 | inconclusive: 32.6 µM [cytotoxic, partial curve, poor fit] |  |
| CN(Cc1cnn(Cc2ccccc2)c1)C(=O)c1cccc(S(=O)(=O)N2CCOCC2)c1 | active: 14.6 µM |  |
| O=C(NCc1ccccc1)C1CCN(S(=O)(=O)c2ccc3[nH]c(=O)ccc3c2)CC1 | inactive |  |
| O=C(CNc1cccc(S(=O)(=O)N2CCCC2)c1)Nc1cccc(Br)c1 | inconclusive: 18.4 µM [cytotoxic, single point] |  |
| O=C1C(=O)N(CCN2CCOCC2)C(c2ccccn2)/C1=C(/O)c1ccccc1 (stereo not drawn) | inconclusive: 20 µM [rising, partial curve, poor fit] |  |
| COc1ccc(-c2cc3ccccc3n2CC(O)CN2CCCCC2)cc1 (stereo not drawn) | inactive |  |
| O=C(Cc1csc(NC(=O)Nc2ccc(Cl)cc2)n1)NC1CCCC1 | inconclusive: 29.1 µM [cytotoxic, single point] |  |
| Cc1[nH]n(-c2ccccc2)c(=O)c1C(C[N+](=O)[O-])c1ccccc1Cl (stereo not drawn) | inactive |  |
| CCn1cc(C(=O)O)c(=O)c2cc(F)c(N3CCN(C(=S)NC(=O)c4ccc(F)cc4)CC3)cc21 | inactive |  |
| CC(C)OCc1cc(CN2CCN(c3ccccc3)CC2)c(O)c2ncccc12 | inconclusive: 14.6 µM [cytotoxic, partial curve] |  |
| O=C(Nc1ccncc1)c1ccc2c(c1)S(=O)(=O)c1ccccc1C2=O | inconclusive: 14.6 µM [cytotoxic, partial curve] |  |
| C[C@@H]1CN([C@@H](C)CO)S(=O)(=O)c2ccc(Br)cc2O[C@H]1CN(C)C(=O)c1cccc(F)c1 | inactive |  |
| COc1ccc(-c2csc(N(CC3CCCO3)C(=O)c3ccc(C)cc3)n2)cc1 (stereo not drawn) | inconclusive: 16.4 µM [cytotoxic, partial curve, poor fit] |  |
| O=C(Cn1cnc2c(cnn2-c2ccc(F)cc2)c1=O)N1CCCc2ccccc21 | inconclusive: 23.1 µM [cytotoxic, single point] |  |
| CC1=C(C(=O)Nc2ccc(F)cc2F)C2(CCCCCC2)OC1=O |  | inconclusive: 16.1% |
| Cc1ccc(-c2csc3n[nH]c(=S)n23)cc1 | inconclusive: 23.1 µM [cytotoxic, single point] |  |
| Cc1ccc(NC(=S)NNC(=S)NNc2ccccc2)cc1C | inactive |  |

Source: PubChem BioAssay AID1347075 (National Center for Advancing Translational Sciences (NCATS), 2019)
